Measured values taken from patent US20080050378A1.
Results are given in words; binding and its absence hold for the method and conditions named. Some binding calls cover weakened binding; strength is not graded here.

The chains behind the UniProt entries cited, without tags or fusion partners. Where a name states a change or a piece, a line headed by the entry shows the natural chain unless it says otherwise.
UniProt Q92847: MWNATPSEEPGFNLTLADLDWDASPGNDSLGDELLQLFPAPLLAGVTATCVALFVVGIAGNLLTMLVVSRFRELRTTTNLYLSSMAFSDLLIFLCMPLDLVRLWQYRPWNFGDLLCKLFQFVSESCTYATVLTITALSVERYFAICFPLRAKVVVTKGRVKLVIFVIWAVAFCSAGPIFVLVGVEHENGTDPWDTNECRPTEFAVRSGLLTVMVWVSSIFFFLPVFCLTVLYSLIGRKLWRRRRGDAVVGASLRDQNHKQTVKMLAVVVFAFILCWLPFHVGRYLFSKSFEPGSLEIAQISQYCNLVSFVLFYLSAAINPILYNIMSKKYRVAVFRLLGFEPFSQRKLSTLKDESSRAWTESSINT

How the values were obtained:
[1] = target: FLAG-tagged NTSR1 (neurotensin receptor 1) on COS-7 cells (human) (UniProt P30989); assay: confocal co-localisation on the cell membrane and flow cytometry, transfected COS-7 cells, 0.5 µM labeled peptide
[2] = target: FLAG-tagged GHSR1b (growth hormone secretagogue receptor 1b) on COS-7 cells (human) (UniProt Q92847); assay: as above
[3] = target: FLAG-tagged NTSR1 (neurotensin receptor 1) on COS-7 cells (human) (UniProt P30989); assay: flow cytometry on transfected COS-7 cells (FIG. 13d)
[4] = target: FLAG-tagged GHSR1b (growth hormone secretagogue receptor 1b) on COS-7 cells (human) (UniProt Q92847); assay: as above
[5] = target: endogenous NTSR1 on NSCLC cells (LC319, PC-14) (human) (UniProt P30989); assay: receptor-ligand binding assay on LC319 and PC-14 cells, 8200 Cellular Detection System
[6] = target: endogenous GHSR1b on NSCLC cells (LC319, PC-14) (human) (UniProt Q92847); assay: as above

Measured: binding

FRVDEEFQSPFASQSRGYFLFRPRN (peptide, UniProt P48645 142-166, looked up, rhodamine label (position not given)) [rhodamine-labeled NMU-25 peptide (NMU-25-rhodamine)]
binds: [1] | [2] | [3] | [4]

FRVDEEFQSPFASQSRGYFLFRPRN (peptide, UniProt P48645 142-166, looked up, Cy5 label (position not given)) [Cy5-labeled NMU-25 (Cy5-NMU-25)]
binds: [5] | [6]
